From article PMC10223552 (Pharmaceuticals, 2023)

Assays:
[1] = system: MCF-7 breast cancer cells; type: cell-based; settings: selectivity index
Description: (§1) The cell lines were obtained from American Type Culture Collection (ATCC, Manassas, VA, USA) and were cultured at 37 °C in the presence of 5% CO2 in the atmosphere. […] The cell’s morphology was examined under a Nikon Eclipse Ti inverted phase contrast microscope (Nikon, Tokyo, Japan). The authenticity of tested cell lines was verified by short tandem repeat (STR) genotyping in the Department of Forensic Medicine (Medical University of Lublin, Lublin, Poland).
(§2) Cell viability based on metabolic activity was evaluated with the MTT colorimetric test based on the ability of viable cells to cause the transformation of tetrazolium salts MTT (3-[4,5-dimethylthiazol-2-yl]-2,5)diphenyltetrazolium bromide) into purple formazan, by cellular dehydrogenases. The cells were seeded into 96-well plates at a concentration of 2 × 10^5 cells/mL. […] Doxorubicin was used for comparison as the standard chemotherapeutic agent used in breast cancer treatment. After 48 h of incubation cell cultures were supplemented with 20 µL of 5 mg/mL MTT (Thermofisher, Waltham, MA, USA) stock in PBS (Corning, NY, USA), and the incubation was continued for 4 h at 37 °C. Next, the medium with MTT was removed, and obtained crystals were dissolved in 200 µL of DMSO (dimethyl sulfoxide, Avantor, Gliwice, Poland). The solution absorbency was measured at 570 nm, using a PowerWave™ xs microplate spectrophotometer (BioTek Instruments, Winooski, VT, USA). The experiment was performed three times with three replicates for each concentration of tested compounds.

[2] = system: MDA-MB-231 breast cancer cells; type: cell-based; settings: selectivity index
Description: as §1, §2

Structure (SMILES) | SI BJ(IC50)/MCF-7(IC50) [1] | SI BJ(IC50)/MDA-MB-231(IC50) [2]
N=C(N)N(CCCCN1CCN(CCCCCCCOc2ccccc2)CC1)Cc1ccccc1 [ADS1017] | 1.58 | 1.96
Cl.Cl.N=C(NCCCCc1ccc(Cl)cc1)NCCCCN1CCCCC1 [ADS10310] | 2.79 | 2.01
COc1cccc2c1C(=O)c1c(O)c3c(c(O)c1C2=O)C[C@@](O)(C(=O)CO)C[C@@H]3O[C@H]1C[C@H](N)[C@H](O)[C@H](C)O1 [Doxorubicin, reference compound] | 2.20 | 2.63
